Measured values as given in PubChem BioAssay AID504378 (National Center for Advancing Translational Sciences (NCATS), 2011).
Inconclusive results, whose numbers are uncertain, are shown with a selection of clear calls. Potencies of inconclusive entries are doubtful fits and often do not repeat. The source made the active and inactive calls. Calls follow the shape of the dose curve; as a rule, active = well fitted curve in the direction sought with a large enough effect; inconclusive = small, poorly fitted or top-dose-only effect, or another doubt; inactive = no such curve, though single readings can be large or run the other way.

Test: qHTS Assay for Compounds Blocking the Interaction Between CBF-beta and RUNX1 for the Treatment of Acute Myeloid Leukemia: SAR for Probe with Orthogonal Assay
Conditions: ME-1 cells viability, ATPlite luminescence, 48 h; series mostly up to 82.4 µM
From the text: NIH Chemical Genomics Center [NCGC] NIH Molecular Libraries Probe Production centers Network [MLPCN] MLPCN Grant: X01MH083259-01 Assay Submitter (PI): Paul Liu NCGC Assay Overview: Core Binding Factor (CBF) abnormalities are associated with 20-25% of all acute myeloid leukemias (AML), of which 5-10% are further sub classified as acute myelomonocytic leukemia with eosinophilia, also known as M4Eo in the FAB classification scheme. This subtype of leukemia is usually associated with chromosome 16 inversion (p13:q22). Chromosome 16 inversion results in formation of the fusion oncogene CBFB-MYH11, which encodes the fusion protein CBF-beta-SMMHC. […] It has been hypothesized that the interference of CBF-beta and RUNX1 binding could have therapeutic implications for patients with CBF mediated leukemias. We developed a CBF-beta and RUNX1 binding assay in AlphaScreenTM format and optimized it for high throughput screening to search for inhibitors. The goal of this project is to screen MLPCN's compound collection (MLSMR) for identifying the inhibitors of the interaction between CBF-beta and RUNX1 proteins as research probes. If these probes work well in the animal models, the ultimate goal of this project is to development a new drug treatment for this disease. This assay can not be used to assess how apparent inhibitors interfere with protein binding, and whether inhibitors specifically bind to either protein. Disruption of this protein-protein interaction, through any mechanism, is the intended target activity. […]
NCGC Assay protocol: ME-1 suspension cells were grown in T225 flasks to 80% density under a standard cell culture condition (ATCC) using Dulbecco's Modified Eagle Medium (DMEM) + 10% fetal bovine serum, harvested in OPTI-MEM (phenol free) + 10% FBS. […] Plates were then transferred to 37 C with 5% CO2 and 95% humidity for 48 hours, and then ATP content was measured following the addition of 4uL/well of ATPlite reagent and a 20 min incubation on a ViewLux plate reader. […]
For `NCC(=O)Nc1ccc(Cl)cc1C(=O)c1ccc[nH]1`, the Potency was “inactive”.
For `Nc1ccc(Cl)cc1C(=O)c1ccc[nH]1`, the Potency was inconclusive: 217 nM [inhibitor, full curve] and inactive.
For `CC(=O)Nc1ccc(Cl)cc1C(=O)c1ccc[nH]1`, the Potency was inconclusive: 3.44 µM [inhibitor, partial curve].
